The target in this assay is tetraheme cytochrome subunit of the Thermochromatium tepidum reaction center (Thermochromatium tepidum) (UniProt D2Z0P5). The assay can be described thus: crystal structure; co-crystal by micro-batch under oil; HiPIP:LH1-RC mixed 15:1, LH1-RC 0.0694 mM; 30 mM sodium succinate pH 5, 20 mM CaCl2, 3.4% OPC, 30% PEG 1500; 20 °C; 2.9 Å; both purified.

Among the data in article PMC7889895, “Crystal structure of a photosynthetic LH1-RC in complex with its electron donor HiPIP” (Nature Communications, 2021) are binding values, retold here.

These are yes or no findings as the source states them, for the method shown. Some entries that bind do so weakly or less than the wild type.

B1: high-potential iron-sulfur protein (HiPIP) of Thermochromatium tepidum (protein, UniProt P80176 1-83)
chain: AAPANAVTADDPTAIALKYNQDATKSERVAAARPGLPPEEQHCANCQFMQANVGEGDWKGCQLFPGKLINVNGWCASWTLKAG
For the molecule B1, the binding entry is reported as “binds weakly”.
